# Assay results taken from publication PMC7819943, “Rice protein-binding microarrays: a tool to detect cis-acting elements near promoter regions in rice”.
# Amino acid sequences for entries named in this document (tags omitted).
# UniProt Q0JBA9, entry or part of it: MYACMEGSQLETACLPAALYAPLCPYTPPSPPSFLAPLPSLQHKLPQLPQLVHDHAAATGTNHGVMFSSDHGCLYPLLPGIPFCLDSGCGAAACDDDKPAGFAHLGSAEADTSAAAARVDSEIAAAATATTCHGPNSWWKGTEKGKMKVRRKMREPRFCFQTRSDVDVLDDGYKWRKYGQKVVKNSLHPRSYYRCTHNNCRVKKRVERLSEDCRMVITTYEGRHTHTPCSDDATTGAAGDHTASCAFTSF
# Some of the results follow.
# Biological target: OsWRKY34 (Oryza sativa, UniProt Q0JBA9 1-250)
# Experiment: protein-binding microarray (RPBM); PBS, 2% BSA, 51.3 ng/ul salmon testes DNA, 50 uM zinc acetate, 200 nM TF, 25 C, 1 h; high values mean tight binding
# Settings: protein: recombinant; tags: N-terminal polyhistidine and DsRed monomer fusion (pET32a); label: CyDye5-dUTP incorporated in the synthesized complementary strand; 3' TTTTT single-stranded linker to array surface; dsDNA, one strand shown
# Method in brief: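 Transcription factors were made in E. coli BL21-CodonPlus as N-terminal fusions to a polyhistidine tag and DsRed, then purified on Ni–NTA. After primer extension with Cy5-dUTP and blocking with 2% BSA, a custom Agilent array was exposed for 1 h at 25 °C to 200 nM protein in PBS, 2% BSA, salmon testes DNA and 50 µM zinc acetate. Washed arrays were scanned on an Axon 4000B, and the binding signal is per-feature fluorescence intensity in arbitrary units.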
row,Sequence,binding signal
1,GGAGCGCGCGGCTTTTGATTTCGTGGGATCTCAGGGGCGGCGGAGTCACCTAGTGCAG,8620 fluorescence intensity (a.u.)
2,TTCCATCGGTCGGCCAGAATTGCTGCATGCTGTTGTCTTACGGAGTCACCTAGTGCAG,9850 fluorescence intensity (a.u.)
3,CACATGATGGCAGGGCAGGGTTCACATGAGCTCTAACGGTCGGAGTCACCTAGTGCAG,8140 fluorescence intensity (a.u.)
4,CAAAAGTAAAACCATCCCTTGACTTTTGATCGATCGATTGCGGAGTCACCTAGTGCAG,9470 fluorescence intensity (a.u.)
5,TGGCACCTTTGGCTACATTGCTCCAGGTATCTACTATATTCGGAGTCACCTAGTGCAG,8120 fluorescence intensity (a.u.)
6,AGCAACATCTTTATAATCTCTCTGCTGGATTAATTATTTTCGGAGTCACCTAGTGCAG,8470 fluorescence intensity (a.u.)
7,ACTGTAATAAGTTTGGGACTGTGCTGGTTGTCCTCGATCCCGGAGTCACCTAGTGCAG,8080 fluorescence intensity (a.u.)
8,AAGAACATTCTTCCTGACTATTTTCTGGGTTTTCTGTTCTCGGAGTCACCTAGTGCAG,10300 fluorescence intensity (a.u.)
9,GTGGCGTGGTGTGGTGGGGTCGCGGCGCTGCGCGCGGACGCGGAGTCACCTAGTGCAG,8600 fluorescence intensity (a.u.)
10,TCTGCAGCCAGAGCCAGCCAACCGAGCACACATCTTGTTACGGAGTCACCTAGTGCAG,9740 fluorescence intensity (a.u.)
11,TTCTTTCTTCTCTGAATGTATCTCTACATATGCACGAATGCGGAGTCACCTAGTGCAG,8910 fluorescence intensity (a.u.)
12,TCCTCCAATCGGAGAGGTGTGCTCGCGTGTTTGGTTTGACCGGAGTCACCTAGTGCAG,10400 fluorescence intensity (a.u.)
13,CTAGTGATCAGAATCCATCTCCTCGTTTCCACCTCTGTTGCGGAGTCACCTAGTGCAG,8310 fluorescence intensity (a.u.)
14,GTCACAACACCACGTTGACCTGCGATTCTGCGAGCTGAACCGGAGTCACCTAGTGCAG,8290 fluorescence intensity (a.u.)
15,GATGATCAGGCTTTTGACTTTGCTCGGTATAGTCACTCATCGGAGTCACCTAGTGCAG,8390 fluorescence intensity (a.u.)
16,CCGGCCCATCGCTTTGTCGCGACGCGCGCGCATCGATCCCCGGAGTCACCTAGTGCAG,8760 fluorescence intensity (a.u.)
17,TAACATTGCCTGGTTCAGGAATTCATTTATTTTGTTGTTTCGGAGTCACCTAGTGCAG,8910 fluorescence intensity (a.u.)
18,GCAGCGCCCGTAACCTCGTACGTATCGCCTCGTGGGAAGCCGGAGTCACCTAGTGCAG,8050 fluorescence intensity (a.u.)
19,GGAGGCGGGGAAGGGGTCTGGCGGCAGGAAATGAGGAGTCCGGAGTCACCTAGTGCAG,13500 fluorescence intensity (a.u.)
20,GCTAGCTAGCCGTGTTCCTGTTCTTGGTTTCTTTCATCCACGGAGTCACCTAGTGCAG,13200 fluorescence intensity (a.u.)
21,CATGCCCGCAAACTCCGTCCCCGTCTACCATCTAGATGTCCGGAGTCACCTAGTGCAG,8192 fluorescence intensity (a.u.)
22,ACGCACAGCTTATCCGATTCCATCCATTCCTCAAGCTCTCCGGAGTCACCTAGTGCAG,10100 fluorescence intensity (a.u.)
23,ATAGCCATCTCACTTCTCTCTGGCTCTGTCCTTCCTGCCACGGAGTCACCTAGTGCAG,8220 fluorescence intensity (a.u.)
24,GGTTTTGTACTTATTTTCTATAAATTCGGCTAGTTTAGTACGGAGTCACCTAGTGCAG,9460 fluorescence intensity (a.u.)
25,TATTTTTTGCATTTTGCTCCCTGATTTGAACTGTATTTCTCGGAGTCACCTAGTGCAG,8660 fluorescence intensity (a.u.)
26,TAAGGGATGGGATGGTTGGCTTGGATCGAGTATATTTCTTCGGAGTCACCTAGTGCAG,18900 fluorescence intensity (a.u.)
27,CACCACCACCCCAGTACAAACACCTTGCGTCCTCTCAACTCGGAGTCACCTAGTGCAG,11200 fluorescence intensity (a.u.)

# Single entries from above.
# Value for TTCTTTCTTCTCTGAATGTATCTCTACATATGCACGAATGCGGAGTCACCTAGTGCAG under binding signal: 8910 fluorescence intensity (a.u.)
# Value for ATAGCCATCTCACTTCTCTCTGGCTCTGTCCTTCCTGCCACGGAGTCACCTAGTGCAG under binding signal: 8220 fluorescence intensity (a.u.)

# Later entries.

row,Sequence,binding signal
1,CCTCTTATTCTACTTGTAGCTTTTTTTTTTCTTTCAAATTCGGAGTCACCTAGTGCAG,11600 fluorescence intensity (a.u.)
2,AAACGCGCGCGCCATTTTTCTTCTTCCCGCGATAAACCGACGGAGTCACCTAGTGCAG,9220 fluorescence intensity (a.u.)
3,GTGGTTTCATCATGTAAGGGATATCCCCTCGTTTCTTGCACGGAGTCACCTAGTGCAG,8280 fluorescence intensity (a.u.)
4,AGCTCTCGCCCGCGTCGTCCGTTTCCGCGCTTTCCCCTGCCGGAGTCACCTAGTGCAG,11500 fluorescence intensity (a.u.)
5,CCAAGTGCAGCGCGTCCTCTTCCACTTCCAACATCTACTACGGAGTCACCTAGTGCAG,8320 fluorescence intensity (a.u.)
6,CGCCTTCAATGCATCATCTTCGCCTCTCGACTCAATCTGCCGGAGTCACCTAGTGCAG,8640 fluorescence intensity (a.u.)
7,TCTTTCCTGACTTTTAGATCTATTCATCCAACGGCTTATACGGAGTCACCTAGTGCAG,9750 fluorescence intensity (a.u.)
8,TGTGTGCTATTGTTTCGCCTATCCTTACGCGTATAAACCACGGAGTCACCTAGTGCAG,8530 fluorescence intensity (a.u.)
9,GAGAGAGGGGAGGAAGAGAAACGATGGTGGAGGGGAAAGACGGAGTCACCTAGTGCAG,8720 fluorescence intensity (a.u.)
10,TTCTCTATCCTTTTCTTTCATCTCTTTGGCTGATCTGTGACGGAGTCACCTAGTGCAG,12000 fluorescence intensity (a.u.)
11,ACAAAACTGAACTCGCTACCACATCAATATACCACCTAGCCGGAGTCACCTAGTGCAG,8850 fluorescence intensity (a.u.)
12,GTGTTTGTTTTGTCATTTGTAGTGAGCTCGCGTGATGAGCCGGAGTCACCTAGTGCAG,8880 fluorescence intensity (a.u.)
13,TTTATTGGAATACTCTCTGCTTCTAATCATTTCGCTGAGCCGGAGTCACCTAGTGCAG,8090 fluorescence intensity (a.u.)
14,CGGCTGGCATCCATCCATCCATTCCACCGTAGTCGTACCCCGGAGTCACCTAGTGCAG,8670 fluorescence intensity (a.u.)
15,TGGCCGTCCGTCATCTCCGCCGCCTCCGCCTCCGCCGCCGCGGAGTCACCTAGTGCAG,9240 fluorescence intensity (a.u.)
16,AGCTGCAATCTCTTTCTGGATCATCAGTGCAAGACATACTCGGAGTCACCTAGTGCAG,9450 fluorescence intensity (a.u.)
17,CCATCCAAGCTTGACCGGGAACCAAACACACCCTTACAAACGGAGTCACCTAGTGCAG,8380 fluorescence intensity (a.u.)
18,CACCACTCGCTTCCCTTTTTCCCAGCTGCGTTTTTTTTAACGGAGTCACCTAGTGCAG,8610 fluorescence intensity (a.u.)
19,TTTTGCTACAGTGCTCGGATATATCTGGGACGTCCATTTTCGGAGTCACCTAGTGCAG,10200 fluorescence intensity (a.u.)
20,ACCCCGGCCACTCGTAAACCCCGAGAAACCTTGGCGGCTTCGGAGTCACCTAGTGCAG,8130 fluorescence intensity (a.u.)
21,TTGTACGATCGATTACCAGTAGTAGCTCACTCCTAATCTCCGGAGTCACCTAGTGCAG,9280 fluorescence intensity (a.u.)
22,GAATTCTTGCAAACTCGTTTCATATGTTTTGTTTTGCTTTCGGAGTCACCTAGTGCAG,11300 fluorescence intensity (a.u.)
23,CCCTTTTTTATACCGTGGCATATCTCTCTGCATTTAATCTCGGAGTCACCTAGTGCAG,13700 fluorescence intensity (a.u.)
24,GTCTTCCCCTAGCGCCGCCGCCTCCACCTCCGCCGCCGTCCGGAGTCACCTAGTGCAG,8700 fluorescence intensity (a.u.)
25,GTCATCCTCTTTGTGTGAGCGGCCACCATCGGCGCATCGTCGGAGTCACCTAGTGCAG,8350 fluorescence intensity (a.u.)
26,ACGCTTTTTTTTATAGTTCATCCATGCAGATGGAGTACTCCGGAGTCACCTAGTGCAG,14600 fluorescence intensity (a.u.)
27,GGAGATTTCCCCGCCGTTGACTGGTAACTACCTACCTATCCGGAGTCACCTAGTGCAG,11200 fluorescence intensity (a.u.)
